Results from article doi:10.1101/2020.02.21.960245.
These are yes or no findings as the source states them, for the method shown. For some of these results: In cells and extracts the contact can be indirect. Some results given as binding are weak or reduced against the parent protein; the word gives no strength. For some of these results: Where a sequence is shown, tags or fusion partners need not be part of it.

The chains behind the UniProt entries cited, without tags or fusion partners.
UniProt P33323: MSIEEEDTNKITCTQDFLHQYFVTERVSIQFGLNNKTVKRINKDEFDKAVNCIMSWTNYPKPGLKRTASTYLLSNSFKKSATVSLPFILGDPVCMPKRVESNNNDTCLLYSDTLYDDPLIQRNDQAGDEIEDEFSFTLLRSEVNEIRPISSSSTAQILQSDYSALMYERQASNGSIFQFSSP

T1: Rec114–Mei4 complex (combinations of MBP-tagged and HisFlag-tagged subunits) (S. cerevisiae) (UniProt P32841)
T1 sequence 1: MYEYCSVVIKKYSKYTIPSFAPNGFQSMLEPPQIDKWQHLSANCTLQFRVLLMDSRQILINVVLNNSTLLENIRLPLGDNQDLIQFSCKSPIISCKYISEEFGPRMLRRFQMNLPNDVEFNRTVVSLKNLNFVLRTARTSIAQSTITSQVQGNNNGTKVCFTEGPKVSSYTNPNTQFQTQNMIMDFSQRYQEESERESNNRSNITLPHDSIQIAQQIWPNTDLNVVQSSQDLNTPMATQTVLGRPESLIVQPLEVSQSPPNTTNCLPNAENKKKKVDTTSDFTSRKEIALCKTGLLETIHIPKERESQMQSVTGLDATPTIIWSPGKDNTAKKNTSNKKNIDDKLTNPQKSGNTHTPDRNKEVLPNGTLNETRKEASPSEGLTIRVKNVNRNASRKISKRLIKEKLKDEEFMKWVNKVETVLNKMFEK
T1 sequence 2: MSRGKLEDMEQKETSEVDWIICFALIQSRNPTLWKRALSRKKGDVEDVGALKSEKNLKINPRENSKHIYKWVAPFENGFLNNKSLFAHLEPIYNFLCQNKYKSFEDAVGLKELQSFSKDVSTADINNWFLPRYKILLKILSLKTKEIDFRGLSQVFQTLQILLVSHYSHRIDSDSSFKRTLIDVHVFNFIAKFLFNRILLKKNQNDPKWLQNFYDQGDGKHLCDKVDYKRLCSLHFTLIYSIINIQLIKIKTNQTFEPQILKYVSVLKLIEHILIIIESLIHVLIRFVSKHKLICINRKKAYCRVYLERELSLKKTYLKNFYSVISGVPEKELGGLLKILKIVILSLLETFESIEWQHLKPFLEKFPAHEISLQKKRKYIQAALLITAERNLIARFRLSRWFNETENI

T2: LexA-Rec102 (S. cerevisiae) (UniProt Q02721)
T2 sequence: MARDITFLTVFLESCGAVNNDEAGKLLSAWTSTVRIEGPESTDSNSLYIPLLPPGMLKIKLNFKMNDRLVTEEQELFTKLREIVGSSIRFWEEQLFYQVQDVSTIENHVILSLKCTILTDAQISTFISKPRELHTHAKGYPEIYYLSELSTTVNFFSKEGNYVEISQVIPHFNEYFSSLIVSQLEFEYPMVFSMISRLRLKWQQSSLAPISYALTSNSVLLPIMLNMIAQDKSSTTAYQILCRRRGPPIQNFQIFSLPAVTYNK

T3: HisSUMORec114(325-428) wild type (S. cerevisiae) (UniProt P32841)
T3 sequence: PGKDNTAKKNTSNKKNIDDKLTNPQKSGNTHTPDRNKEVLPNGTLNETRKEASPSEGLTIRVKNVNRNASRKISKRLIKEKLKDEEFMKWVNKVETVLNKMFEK

T4: HisSUMORec114(325-428) F411A (S. cerevisiae) (UniProt P32841)
T4 sequence: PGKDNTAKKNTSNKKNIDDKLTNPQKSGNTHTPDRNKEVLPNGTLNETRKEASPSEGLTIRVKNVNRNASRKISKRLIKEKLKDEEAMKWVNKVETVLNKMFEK

T5: LexA-Mei4 (S. cerevisiae) (UniProt P29467)
T5 sequence: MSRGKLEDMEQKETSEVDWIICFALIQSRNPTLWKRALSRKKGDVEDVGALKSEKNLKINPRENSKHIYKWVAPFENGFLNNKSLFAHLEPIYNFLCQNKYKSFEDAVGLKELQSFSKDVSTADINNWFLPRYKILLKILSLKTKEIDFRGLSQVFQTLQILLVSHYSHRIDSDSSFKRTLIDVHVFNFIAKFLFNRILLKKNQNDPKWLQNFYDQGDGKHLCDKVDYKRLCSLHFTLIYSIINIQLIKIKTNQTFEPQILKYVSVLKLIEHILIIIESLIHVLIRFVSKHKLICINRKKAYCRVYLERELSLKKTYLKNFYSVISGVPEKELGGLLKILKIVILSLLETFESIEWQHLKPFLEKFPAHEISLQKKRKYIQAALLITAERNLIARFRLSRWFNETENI

T6: LexA-Rec114 (S. cerevisiae) (UniProt P32841)
T6 sequence: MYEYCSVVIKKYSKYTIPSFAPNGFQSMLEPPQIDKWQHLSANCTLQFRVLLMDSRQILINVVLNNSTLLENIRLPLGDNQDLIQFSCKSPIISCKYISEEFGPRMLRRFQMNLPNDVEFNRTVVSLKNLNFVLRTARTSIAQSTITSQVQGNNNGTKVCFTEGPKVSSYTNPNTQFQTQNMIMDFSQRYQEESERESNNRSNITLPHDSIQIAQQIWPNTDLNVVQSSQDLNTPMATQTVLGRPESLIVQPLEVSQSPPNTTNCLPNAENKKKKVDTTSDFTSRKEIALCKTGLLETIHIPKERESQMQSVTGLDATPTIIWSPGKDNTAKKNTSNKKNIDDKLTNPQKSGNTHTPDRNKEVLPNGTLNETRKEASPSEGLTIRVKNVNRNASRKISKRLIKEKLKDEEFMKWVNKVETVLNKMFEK


Experiments:
[1] = target: T1, Rec114–Mei4 complex (combinations of MBP-tagged and HisFlag-tagged subunits) (S. cerevisiae); test: pull-down
[2] = target: T2, LexA-Rec102 (S. cerevisiae); test: two-hybrid
[3] = target: LexA-Rec104 (S. cerevisiae) (UniProt P33323); test: two-hybrid
[4] = target: T3, HisSUMORec114(325-428) wild type (S. cerevisiae); test: pull-down
[5] = target: T4, HisSUMORec114(325-428) F411A (S. cerevisiae); test: pull-down
[6] = target: untagged F411A Rec114(325-428) (S. cerevisiae) (UniProt P32841); test: SEC-MALS
[7] = target: T5, LexA-Mei4 (S. cerevisiae); test: two-hybrid
[8] = target: T6, LexA-Rec114 (S. cerevisiae); test: two-hybrid

Binder	binding [2]	binding [3]	binding [7]	also measured
Mer2 co-expressed with Rec114 and Mei4 in insect cells (protein, UniProt P21651 1-314) MVARGRTDEISTDVSEANSEHSLMITETSSPFRSIFSHSGKVANAGALEESDKQILEWAGKLELESMELRENSDKLIKVLNENSKTLCKSLNKFNQLLEQDAATNGNVKTLIKDLASQIENQLDKVSTAMLSKGDEKKTKSDSSYRQVLVEEISRYNSKITRHVTNKQHETEKSMRCTQEMLFNVGSQLEDVHKVLLSLSKDMHSLQTRQTALEMAFREKADHAYDRPDVSLNGTTLLHDMDEAHDKQRKKSVPPPRMMVTRSMKRRRSSSPTLSTSQNHNSEDNDDASHRLKRAARTIIPWEELRPDTLESEL	–	–	–	binding [1]: no binding
Gal4AD-Rec114(1-377) (domain or fragment, UniProt P32841 1-377) MYEYCSVVIKKYSKYTIPSFAPNGFQSMLEPPQIDKWQHLSANCTLQFRVLLMDSRQILINVVLNNSTLLENIRLPLGDNQDLIQFSCKSPIISCKYISEEFGPRMLRRFQMNLPNDVEFNRTVVSLKNLNFVLRTARTSIAQSTITSQVQGNNNGTKVCFTEGPKVSSYTNPNTQFQTQNMIMDFSQRYQEESERESNNRSNITLPHDSIQIAQQIWPNTDLNVVQSSQDLNTPMATQTVLGRPESLIVQPLEVSQSPPNTTNCLPNAENKKKKVDTTSDFTSRKEIALCKTGLLETIHIPKERESQMQSVTGLDATPTIIWSPGKDNTAKKNTSNKKNIDDKLTNPQKSGNTHTPDRNKEVLPNGTLNETRKEAS	no binding	no binding	–	–
Gal4AD-Rec114(del152-377) (protein, UniProt P32841) MYEYCSVVIKKYSKYTIPSFAPNGFQSMLEPPQIDKWQHLSANCTLQFRVLLMDSRQILINVVLNNSTLLENIRLPLGDNQDLIQFSCKSPIISCKYISEEFGPRMLRRFQMNLPNDVEFNRTVVSLKNLNFVLRTARTSIAQSTITSQVQPSEGLTIRVKNVNRNASRKISKRLIKEKLKDEEFMKWVNKVETVLNKMFEK	binds	binds	–	–
Mei4(1-90) (domain or fragment, UniProt P29467 1-90) MSRGKLEDMEQKETSEVDWIICFALIQSRNPTLWKRALSRKKGDVEDVGALKSEKNLKINPRENSKHIYKWVAPFENGFLNNKSLFAHLE	–	–	–	binding [4]: binds; binding [5]: no binding
untagged F411A Rec114(325-428) (domain or fragment, UniProt P32841 325-428) PGKDNTAKKNTSNKKNIDDKLTNPQKSGNTHTPDRNKEVLPNGTLNETRKEASPSEGLTIRVKNVNRNASRKISKRLIKEKLKDEEAMKWVNKVETVLNKMFEK	–	–	–	binding [6]: no binding
Gal4AD-Rec114 wild type (protein, UniProt P32841 1-428) MYEYCSVVIKKYSKYTIPSFAPNGFQSMLEPPQIDKWQHLSANCTLQFRVLLMDSRQILINVVLNNSTLLENIRLPLGDNQDLIQFSCKSPIISCKYISEEFGPRMLRRFQMNLPNDVEFNRTVVSLKNLNFVLRTARTSIAQSTITSQVQGNNNGTKVCFTEGPKVSSYTNPNTQFQTQNMIMDFSQRYQEESERESNNRSNITLPHDSIQIAQQIWPNTDLNVVQSSQDLNTPMATQTVLGRPESLIVQPLEVSQSPPNTTNCLPNAENKKKKVDTTSDFTSRKEIALCKTGLLETIHIPKERESQMQSVTGLDATPTIIWSPGKDNTAKKNTSNKKNIDDKLTNPQKSGNTHTPDRNKEVLPNGTLNETRKEASPSEGLTIRVKNVNRNASRKISKRLIKEKLKDEEFMKWVNKVETVLNKMFEK	binds	binds	binds	binding [8]: binds
Gal4AD-Rec114 H39A/L40A/S41A (HLS) mutant (protein, UniProt P32841 1-428) MYEYCSVVIKKYSKYTIPSFAPNGFQSMLEPPQIDKWQAAAANCTLQFRVLLMDSRQILINVVLNNSTLLENIRLPLGDNQDLIQFSCKSPIISCKYISEEFGPRMLRRFQMNLPNDVEFNRTVVSLKNLNFVLRTARTSIAQSTITSQVQGNNNGTKVCFTEGPKVSSYTNPNTQFQTQNMIMDFSQRYQEESERESNNRSNITLPHDSIQIAQQIWPNTDLNVVQSSQDLNTPMATQTVLGRPESLIVQPLEVSQSPPNTTNCLPNAENKKKKVDTTSDFTSRKEIALCKTGLLETIHIPKERESQMQSVTGLDATPTIIWSPGKDNTAKKNTSNKKNIDDKLTNPQKSGNTHTPDRNKEVLPNGTLNETRKEASPSEGLTIRVKNVNRNASRKISKRLIKEKLKDEEFMKWVNKVETVLNKMFEK	–	–	binds	binding [8]: binds
Gal4AD-Rec114-F411A (protein, UniProt P32841 1-428) MYEYCSVVIKKYSKYTIPSFAPNGFQSMLEPPQIDKWQHLSANCTLQFRVLLMDSRQILINVVLNNSTLLENIRLPLGDNQDLIQFSCKSPIISCKYISEEFGPRMLRRFQMNLPNDVEFNRTVVSLKNLNFVLRTARTSIAQSTITSQVQGNNNGTKVCFTEGPKVSSYTNPNTQFQTQNMIMDFSQRYQEESERESNNRSNITLPHDSIQIAQQIWPNTDLNVVQSSQDLNTPMATQTVLGRPESLIVQPLEVSQSPPNTTNCLPNAENKKKKVDTTSDFTSRKEIALCKTGLLETIHIPKERESQMQSVTGLDATPTIIWSPGKDNTAKKNTSNKKNIDDKLTNPQKSGNTHTPDRNKEVLPNGTLNETRKEASPSEGLTIRVKNVNRNASRKISKRLIKEKLKDEEAMKWVNKVETVLNKMFEK	binds	binds	no binding	–
Gal4AD-Rec114(53-428) (domain or fragment, UniProt P32841 53-428) MDSRQILINVVLNNSTLLENIRLPLGDNQDLIQFSCKSPIISCKYISEEFGPRMLRRFQMNLPNDVEFNRTVVSLKNLNFVLRTARTSIAQSTITSQVQGNNNGTKVCFTEGPKVSSYTNPNTQFQTQNMIMDFSQRYQEESERESNNRSNITLPHDSIQIAQQIWPNTDLNVVQSSQDLNTPMATQTVLGRPESLIVQPLEVSQSPPNTTNCLPNAENKKKKVDTTSDFTSRKEIALCKTGLLETIHIPKERESQMQSVTGLDATPTIIWSPGKDNTAKKNTSNKKNIDDKLTNPQKSGNTHTPDRNKEVLPNGTLNETRKEASPSEGLTIRVKNVNRNASRKISKRLIKEKLKDEEFMKWVNKVETVLNKMFEK	no binding	no binding	–	–
